Reference: PubChem BioAssay AID662 (National Center for Advancing Translational Sciences (NCATS), 2007)
The other results are listed elsewhere or left out. Further columns of the screen follow, without active or inactive calls. Most of these compounds were active or inconclusive in the main read-out, so they are no random draw. The note in brackets gives the kind of curve behind each potency; many fits are weak.

Test: Cell signaling CRE-BLA (Fsk stim)
Conditions: CHO CRE-bla reporter (cAMP response element driving beta-lactamase), forskolin EC10, beta-lactamase ratio; measured here: 460 nm blue channel
In short: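 Using CellSensor CRE-bla CHO cells in Opti-MEM with 0.5% dialyzed FBS, compounds were titrated with EC10 NKH 477 for 3 h at 37 °C. CCF4 ratio (460/530 nm) gave %Activity; AC50 derived.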

Structure (SMILES)	AC50
COc1cc(C(O)P(=O)(OC2CCCCC2)c2ccc(N(C)C)cc2)cc(OC)c1OC (centres undefined)	3.16 µM [falling, single point]
C1COC(NC(C2CC2)C2CC2)=N1	25.1 µM [falling, single point]
O=c1c(-c2cc(F)cc(F)c2)nc2cnc(N3CCNCC3)nc2n1Cc1cccs1	2 µM [rising, full curve]
Cc1cc(C)n(-c2nc3c(c(=O)[nH]c(=O)n3C)n2CCc2ccccc2)n1	12.6 µM [rising, single point]
CCCC(=O)Nc1nn(C)c2nc3cc(C)ccc3cc12	3.98 µM [rising, partial curve]
CC1CCCCC1NC(=O)c1ccc(N2CCCC2=O)cc1 (centres undefined)	1.26 µM [rising, single point]
N#CC1=C(N)Oc2cc3c(cc2C1c1ccc(Cl)cc1)OCO3 (centres undefined)	15.8 µM [rising, single point]
CCn1nc(C)c(/C=C2\CCCC3=C2OC(N)=C(C#N)C3c2c(C)nn(CC)c2C)c1C (centres undefined)	25.1 µM [rising, single point]
COCCn1c(=O)c(-c2ccc(Cl)cc2)nc2cncnc21	12.6 µM [rising, partial curve]
Cc1c(-c2nn(C)c(=O)c3ccccc23)oc2ccc(F)cc2c1=O	0.0501 µM [rising, full curve, poor fit]
Cc1cc(NC(=O)CSc2nc(-c3ccccc3)cs2)no1	12.6 µM [falling, partial curve]
c1ccc2nc(N3CCCC3)c(N3CCCC3)nc2c1	12.6 µM [rising, single point]
Cc1[nH]nc2c1C(c1ccccc1)C1=C(CC(C)(C)CC1=O)N2 (centres undefined)	0.00316 µM [falling, full curve, poor fit]
Oc1ccc2cc(SSc3ccc4cc(O)ccc4c3)ccc2c1	7.94 µM [falling, partial curve]
COc1ccc(OCCCN2CCCC(C)C2)cc1 (centres undefined)	15.8 µM [rising, single point]
Cc1ccc2[nH]c3c(c2c1)CN(C(=O)CN1CCN(c2cccc(C)c2C)CC1)CC3	3.16 µM [falling, single point]
COC(=O)c1cc(Br)c(=O)n(CCN(C(C)C)C(C)C)c1	15.8 µM [falling, partial curve]
CN(C)c1ccc(-c2cncnc2Nc2ccc(F)cc2)cc1	15.8 µM [falling, partial curve]
O=C(Nc1nc(-c2ccc(S(=O)(=O)N3CCCC3)cc2)cs1)c1ccco1	12.6 µM [rising, partial curve]
CN(C)c1oc(-c2ccc(OCc3ccccc3)cc2)nc1C#N	3.98 µM [rising, partial curve]
N[C@@H](C(=O)O)c1ccc(C(=O)O)c(O)c1	25.1 µM [falling, single point]
CN/C(=C\[N+](=O)[O-])NCCSCc1ccc(CN(C)C)o1	25.1 µM [falling, partial curve, poor fit]

Structure (SMILES)	AC50
Cc1cccc(OCC(=O)Nc2ccccc2N2CCCCC2)c1	3.98 µM [rising, full curve]
CC1=NC(Nc2nc(C)c3ccccc3n2)=NC(C)(C)C1	12.6 µM [rising, single point]
CN1CCN(c2nc3ccccc3nc2C(C#N)C(=O)OC2CCCCC2)CC1 (centres undefined)	2 µM [rising, partial curve]
c1ccc2nc3c(nc2c1)c1ccccc1n3CCN1CCOCC1	12.6 µM [rising, partial curve]
Cc1cc(C)c2c(n1)nn1c(NCCOCCO)cc(C)nc21	20 µM [rising, partial curve]
CCc1c(C)nc2ncnn2c1N1CCC(C(=O)NCc2ccc3c(c2)OCO3)CC1	10 µM [rising, partial curve]
COC(=O)Nc1nc2ccc(Sc3ccccc3)cc2[nH]1	2.51 µM [rising, full curve]
CCn1c(CNc2ccc(Cl)cc2)nnc1SCC(=O)NCc1ccccc1	0.0631 µM [falling, partial curve, poor fit]
Cc1cc(NCCN2CCOCC2)n2ncc(-c3ccccc3)c2n1	3.16 µM [falling, single point]
CCCN1CCN(CCCNC(=O)CN2C(=O)COc3ccccc32)CC1	31.6 µM [falling, partial curve, poor fit]
CCN(CC)S(=O)(=O)c1ccc2oc(C(=O)Nc3ccc(OC)cc3OC)c(C)c2c1	12.6 µM [rising, partial curve]
Cc1cc(N2CCN(C(=O)c3ccco3)CC2)n2nc(-c3cccc(Cl)c3)cc2n1	5.01 µM [rising, single point]
Cc1ccc(N(CC(=O)Nc2ccc(C)cn2)S(=O)(=O)c2c(C)nn(C)c2C)cc1	1.58 µM [rising, partial curve]
CCC(Sc1nc2n[nH]c(C)c2c(=N)n1-c1ccc(C)c(Cl)c1)C(=O)N1CCOCC1 (centres undefined)	12.6 µM [rising, partial curve]
CCn1cc(C(=O)NCCCN2CCC(C)CC2)c2cc(OC)c(OC)cc2c1=O	15.8 µM [rising, partial curve]
Cc1cnc(C(=O)Nc2cccc3cccnc23)cn1	3.98 µM [falling, single point]
Cc1cc(NC(=O)CSc2nc3ccccc3c(=O)n2C2CCCC2)no1	12.6 µM [rising, partial curve]
N#Cc1cccc(-c2cc(NCc3cccnc3)ncn2)c1	12.6 µM [rising, partial curve]
O=c1c(-c2ccc(Cl)cc2)nc2cncnc2n1Cc1ccc(F)cc1	6.31 µM [rising, partial curve]
O=C(CC(c1ccccc1O)N1CCCCC1)N1CCCCC1 (centres undefined)	0.316 µM [rising, partial curve]
CCC(CC)COC(=O)C(C#N)c1nc2ccccc2nc1N1CCOCC1 (centres undefined)	10 µM [rising, partial curve]
COC(=O)c1c(N)n(-c2cc(OC)cc(OC)c2)c2nc3ccccc3nc12	7.94 µM [rising, partial curve]

Rewritten bar-delimited: two of the compounds above
Structure (SMILES) | AC50
c1ccc2nc3c(nc2c1)c1ccccc1n3CCN1CCOCC1 | 12.6 µM [rising, partial curve]
Cc1ccc(N(CC(=O)Nc2ccc(C)cn2)S(=O)(=O)c2c(C)nn(C)c2C)cc1 | 1.58 µM [rising, partial curve]
